Data from the supplement of paper PMC9262897, “Low-cost anti-mycobacterial drug discovery using engineered E. coli” (Nature Communications, 2022).
Counter-ions that a name gives are not always drawn. ± gives the standard deviation of the averaged measurements. This list holds what a sample rich in lowest values left over.

Tested on: E. coli TESEC Mtb Alr
Experiment: growth (OD600 after 10 h); higher = more growth (less inhibition)
Conditions: compound 0.1 mM
Protocol: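 TESEC Mtb Alr E. coli, or the Alr+ wild-type control, in 384-well plates with Prestwick library compounds at 0.1 mM and 1% DMSO, across arabinose induction levels of 1E3 to 1E7 nM. Growth is read as OD600 after 10 h at 37 °C in triplicate biological replicates.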

## CN1[C@@H]2CC[C@H]1C[C@@H](OC(=O)C(O)c1ccccc1)C2 (mixture of isomers) [Homatropine hydrobromide (R,S)]
Arabinose 1000 nM, raw OD600 reference: median of DMSO wells 0.294, cell-free background 0.041
  growth: 0.304 ± 0.004
Arabinose 10000 nM, raw OD600 reference: median of DMSO wells 0.264, cell-free background 0.041
  growth: 0.249 ± 0.0075
Arabinose 100000 nM, raw OD600 reference: median of DMSO wells 0.201, cell-free background 0.041
  growth: 0.213 ± 0.013
Arabinose 1000000 nM, raw OD600 reference: median of DMSO wells 0.193, cell-free background 0.041
  growth: 0.184 ± 0.018
Arabinose 10000000 nM, raw OD600 reference: median of DMSO wells 0.146, cell-free background 0.041
  growth: 0.153 ± 0.0044
